Where two headings read alike, the source gives them in different places.
Experiments:
[1] = test system: CHO cell production of rilonacept; conditions: FIG. 5
[2] = test system: CHO cells expressing a trap protein (receptor-Fc fusion protein, VEGF-trap)
[3] = test system: CHO cells expressing a trap protein (receptor-Fc fusion protein, VEGF-trap); assay: Glycan analysis (HPLC, fluorescent anthranilic acid tags) of VEGF-trap production lots versus soy hydrolysate ornithine content; format: cell-based; conditions: aflibercept, FIG. 4
Protocol: More specifically, ˜90% of production lots cultured in medium comprising selected soy hydrolysate meet FDA production criteria. In contrast, only 57% of production lots cultured in medium comprising soy hydrolysate having more than 5 mg/L ornithine meet FDA production criteria (area under the curve for a specific N-glycan peak).
Each production lot was also compared (with respect to glycan profile) to a reference standard which represents a therapeutically acceptable batch of protein for the exemplary VEGF-trap protein. Representative glycan analysis is shown in Table 4 for protein lots produced from cells cultured in medium supplemented with soy hydrolysate resulting in final concentration of ornithine between 0.5 mg/L and 2.0 mg/L. Compared to the reference, each produced trap protein comprises a consistent glycan profile having peaks within an acceptable range (75% of lots analyzed).

Which results are given for `NCCC[C@H](N)C(=O)O` [ornithine, Ornithine]?
correlation of ornithine in soy hydrolysate with final glycoprotein titer ([1]; 16 soy hydrolysate lots): negative correlation; correlation of ornithine concentration in soy hydrolysate with accumulation of lactate in media [1]: positive correlation; Al N-Glycan relative amount (% area under the curve) ([2]; 1.6 mg/L ornithine, 0 mg/L citrulline): 12.0 % area under the curve; Al N-Glycan relative amount (% area under the curve) ([2]; 1.6 mg/L ornithine, VEGF-trap from CHO cells): 12.5 % area under the curve; Al N-Glycan relative amount (% area under the curve) ([2]; 6.6 mg/L ornithine, VEGF-trap from CHO cells): 9.8 % area under the curve; Al N-Glycan relative amount (% area under the curve) ([2]; 31.6 mg/L ornithine, 0 mg/L citrulline): 8.8 % area under the curve; Al N-Glycan relative amount (% area under the curve) ([2]; 31.6 mg/L ornithine, VEGF-trap from CHO cells): 9.3 % area under the curve; correlation between level of ornithine in soy hydrolysate and glycoprotein quality (A1 N-glycan levels) [3]: strong negative correlation

Source: patent US20190010531A1, “CELL CULTURE PROCESS FOR MAKING A GLYCOPROTEIN” (Regeneron Pharmaceuticals, Inc., priority 2017, published 2019)
